Assay results as given in paper PMC9592557, “Structures of SAS-6 coiled coil hold implications for the polarity of the centriolar cartwheel” (Structure(London, England:1993), 2022).
These are yes or no findings as the source states them, for the method shown. Some results given as binding are weak or reduced against the parent protein; the word gives no strength. Values belong to the binder of their own block, whether it stands above or below them.

Assays:
Assay in all cases: ITC; dilution ITC, step: higher-order complex to coiled-coil dimers; 1.82 mM monomer in the syringe injected into buffer alone, 20°C, 10 mM K-PIPES pH 7.2, dissociation model; both purified
[1] = biological target: CrSAS-6_CCLE (C. reinhardtii) (UniProt A9CQL4)
[2] = biological target: CrSAS-6_CCLQ (C. reinhardtii) (UniProt A9CQL4)
[3] = biological target: CrSAS-6_CCLD (C. reinhardtii) (UniProt A9CQL4)
[4] = biological target: CrSAS-6_CCVD (C. reinhardtii) (UniProt A9CQL4)

- binding [2]: binds weakly
B2: CrSAS-6_CCLQ (domain or fragment, UniProt A9CQL4 277-390)
chain: KLREVKYELDTKVSELSHKLGSSEGSNRSLEEETARLRSLNQQASSSKHELEIALNEAKAKVLALDEKAQSQGDVIEQQRGRLRDMEAALRQTEQRCADLRDTLASAEGRAKEA

- binding [4]: binds weakly
B4: CrSAS-6_CCVD (domain or fragment, UniProt A9CQL4 277-390)
chain: KLREVKYELDTKVSELSHKLGSSEGSNRSLEEETARLRSLNQQLSSSKHELEIQLNEAKAKVLALDEKAQSQGDEIEQQRGRLRNMEAALRQTEQRCADLRDTLASAEGRAKEA

The next lines start with the binder.

B1: CrSAS-6_CCLE (domain or fragment, UniProt A9CQL4 277-390)
chain: KLREVKYELDTKVSELSHKLGSSEGSNRSAEEETARLRSLNQQLSSSKHALEIQLNEAKAKVLALDEKAQSQGDVIEQQRGRLRDMEAALRQTEQRCADLRDTLASAEGRAKEA
- binding [1]: binds weakly

B3: CrSAS-6_CCLD (domain or fragment, UniProt A9CQL4 277-390)
chain: KLREVKYELDTKVSELSHKLGSSEGSNRSLEEETARLRSLNQQLSSSKHELEIQLNEAKAKVEALDEKAQSQGDVIEQQRGRLRDMEAALRQTEQRCADLRNTLASAEGRAKEA
- binding [3]: binds weakly
